Results are given in words; binding and its absence hold for the method and conditions named. Binding seen in cells or lysates may run through a third protein. Some entries that bind do so weakly or less than the wild type. Sequences can lack the tags named with a protein.
B1: Tsh-VN fusion protein (Teashirt), expressed in Drosophila embryos (protein, UniProt P22265 1-954)
chain: MLHEALMLEIYRQALNAGALPTARPRSTESANSSERCPSHDSNSSEHGGGAGSGGVGHRLDAAALSTGVMPGEGPTTLHSSFPAVPQSLPSQPPSMEAYLHMVAAAAQQYGFPLAAAAAAGAGPRLPLPLANEAAAPFKLPPQASPTASSNNSEALDFRTNLYGRAESAEPPASEGEEEEFDDGANNPLDLSVGTRKRGHESEPQLGHIQVKKMFKSDSPPANSVASPSASQLLPGVNPYLAAVAAANIFRAGQFPDWNSKNDLVVDPLEKMSDIVKGGASGMGTKEKMHSSKATTPQAASQPPKSPVQPTPNQNSESGGGSGGGAAGSGAVTKARHNIWQSHWQNKGVASSVFRCVWCKQSFPTLEALTTHMKDSKHCGVNVPPFGNLPSNNPQPQHHHPTPPPPPQNHNLRKHSSGSASNHSPSANVKNAFQYRGDPPTPLPRKLVRGQNVWLGKGVEQAMQILKCMRCGESFRSLGEMTKHMQETQHYTNILSQEQSISIKSGNANANSDAKESHNSLSSEESRTLSAVLTCKVCDKAFNSLGDLSNHMAKNNHYAEPLLQSAGARKRPAPKKREKSLPVRKLLEMKGGSGTTQEDHSNEKTSVQGKPGLGPGGGDKNDAALFAERMRQYITGVKAPEEIAKVAAAQLLAKNKSPELVEQKNGGSAKAAGASSVLSAIEQMFTTSFDTPPRHASLPASSPSNSSTKNTSPVASSILKRLGIDETVDYNKPLIDTNDPYYQHYRYTSSERSGSECSAEARPRLDAPTPEKQQQGGGHDEESSKPAIKQEREAESKPVKMEIKSEFVDEPNEAEETSKMEAAVVNGSATNNNNNIVERSSPKTPSSAASPQTRLLPPRSPAESQRSVTPKSPASSHKSYDGSSEGTKKFPSDSLNALSSMFDSLGSSGAGANSRAKLAAAAAAGGSESPENLTAGGNSLAALRQFCVKKEKTA
B2: VN-Bin fusion protein (Biniou), expressed in Drosophila embryos (protein, UniProt Q9VS05 1-676)
chain: MIKSEEASDRSVMTMDQLGGYYHDPRAHPPFSHPHAHSHPHQHTHTGHPYRAGNLLTGGNYQAMGGGESPTELIDEKPNIGYMELKHYMDATPTATPVSAAQHYSLSALHSMGTPPASSSPIPPYGVLMTAHSAGSASPQSNSKTPTDLPQDLQYASSSTSTAKVQPLQVQLQPLNHQYASTIKYCSNNTILSANDYQLLTSQEQAGQQQPQQLPAQQLQHSPGGGYMSRISTSPSQVISNAHGMPVLNYSSSSSSPAKSLNGSESSPPSQNHLENKVSGSAVVGTGGSSQQDAPSTPDTTKKSGTRRPEKPALSYINMIGHAIKESPTGKLTLSEIYAYLQKSYEFFRGPYVGWKNSVRHNLSLNECFKKLPKGMGVGKPGKGNYWTIDENSAHLFEDEGSLRRRPRGYRSKIKVKPYAGHANGYYASGYGDAGMDNGNYYASPAFASYDYSAAGATGVSPAGGQGFADPWNAHAAHSGSSSVGVGMGVGPLPQYTNISCLAAGGNVNGSATTPPLAHSALGMAPSASSSSSPLGAAATLQSDYAPTASLVAAGYSYATSAGSLDNGLRSISLQQLPGLSSIQHAQAQAQAQAHHHHHQHHASHPSHSHQGHGSMHQNHGTSSTTPPPSQSGGSHGIDHSPIDRKPAYLPPISPPPMMVALNGGGGYYEGLKYAN
B3: Teashirt (Tsh), wild-type, not fused to a Venus fragment, expressed in Drosophila embryos (protein, UniProt P22265 1-954)
chain: B1 chain

Sequences of proteins named here, by UniProt entry; tags and fusion partners are left off.
UniProt P29555: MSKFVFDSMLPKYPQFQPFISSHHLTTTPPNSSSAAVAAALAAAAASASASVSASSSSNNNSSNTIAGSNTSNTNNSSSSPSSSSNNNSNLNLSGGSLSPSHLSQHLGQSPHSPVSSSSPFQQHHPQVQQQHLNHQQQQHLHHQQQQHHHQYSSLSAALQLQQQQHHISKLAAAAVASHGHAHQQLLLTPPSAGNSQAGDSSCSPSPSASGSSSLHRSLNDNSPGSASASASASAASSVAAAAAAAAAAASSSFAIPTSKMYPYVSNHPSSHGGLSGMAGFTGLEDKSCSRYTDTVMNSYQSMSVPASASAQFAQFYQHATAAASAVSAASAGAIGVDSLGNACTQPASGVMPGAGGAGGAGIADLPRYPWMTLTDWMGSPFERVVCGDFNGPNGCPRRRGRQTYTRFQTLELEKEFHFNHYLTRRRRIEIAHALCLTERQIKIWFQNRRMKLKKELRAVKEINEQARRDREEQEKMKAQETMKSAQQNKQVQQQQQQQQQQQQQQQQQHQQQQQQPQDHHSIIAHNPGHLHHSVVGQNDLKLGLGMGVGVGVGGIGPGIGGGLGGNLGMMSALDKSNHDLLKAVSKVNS

Key:
[1] = biological target: VC-AbdA fusion protein, expressed in Drosophila embryos (Drosophila melanogaster) (UniProt P29555); test: split reporter; split Venus (VN 1-173, VC 155-238) BiFC in living Drosophila embryos; fusion proteins expressed by UAS/Gal4 (abdA-Gal4, en-Gal4, btl-Gal4 and others); embryos kept at 4°C for 28 h before confocal imaging
[2] = biological target: VC-AbdA fusion protein, expressed in Drosophila embryos (Drosophila melanogaster) (UniProt P29555); test: split reporter; competition against split Venus BiFC in living Drosophila embryos: an unfused ('cold') protein co-expressed with the two fusion proteins
[3] = biological target: VN-AbdA fusion protein, expressed in Drosophila embryos (Drosophila melanogaster) (UniProt P29555); test: as above

| Binder | binding [1] | binding [2] | binding [3] |
| --- | --- | --- | --- |
| B1 | binds | – | – |
| B2 | binds | – | – |
| B3 | – | binds | binds |
